The supplement of paper PMC7661543
Differences between knockout arms are mostly noise.

Tested on: SKBR3
Test: relative cell number vs DMSO control (72 h) (% of DMSO); higher = less growth inhibition (more cells)
Description: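 QMAP-Seq: a pool of 5 breast cancer cell lines (ZR-75-1, SKBR3, HCC-38, MDA-MB-231, BT-20), each carrying 12 doxycycline-inducible Cas9 sgRNA perturbations (11 knockouts plus non-targeting sgNT), was treated with compounds for 72 h at four 10-fold doses (10 nM-10 uM or 1 nM-1 uM range). Barcodes were amplified and sequenced, and cell number was interpolated from 293T spike-in standard curves. The result is expressed as % of the median of DMSO wells. Two biological replicates.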

CN(C)CC[C@H](CSc1ccccc1)Nc1ccc(S(=O)(=O)NC(=O)c2ccc(N3CCN(Cc4ccccc4-c4ccc(Cl)cc4)CC3)cc2)cc1[N+](=O)[O-] [ABT737]
Details | relative cell number
sgRNA knockout: sgATF3, 10 nM | 100
sgRNA knockout: sgATF3, 100 nM | 101
sgRNA knockout: sgATF3, 1000 nM | 113
sgRNA knockout: sgATF3, 10000 nM | 79.2
sgRNA knockout: sgATF4, 10 nM | 116
sgRNA knockout: sgATF4, 100 nM | 81
sgRNA knockout: sgATF4, 1000 nM | 101
sgRNA knockout: sgATF4, 10000 nM | 78
sgRNA knockout: sgATF6, 10 nM | 114
sgRNA knockout: sgATF6, 100 nM | 79.3
sgRNA knockout: sgATF6, 1000 nM | 93.689
sgRNA knockout: sgATF6, 10000 nM | 66.5
sgRNA knockout: sgATG7, 10 nM | 109
sgRNA knockout: sgATG7, 100 nM | 112
sgRNA knockout: sgATG7, 1000 nM | 92.5
sgRNA knockout: sgATG7, 10000 nM | 80.1
sgRNA knockout: sgERN1, 10 nM | 109
sgRNA knockout: sgERN1, 100 nM | 108
sgRNA knockout: sgERN1, 1000 nM | 99.6
sgRNA knockout: sgERN1, 10000 nM | 103
sgRNA knockout: sgHSF1, 10 nM | 83.8
sgRNA knockout: sgHSF1, 100 nM | 97.6
sgRNA knockout: sgHSF1, 1000 nM | 78.5
sgRNA knockout: sgHSF1, 10000 nM | 83
sgRNA knockout: sgHSF2, 10 nM | 109
sgRNA knockout: sgHSF2, 100 nM | 106
sgRNA knockout: sgHSF2, 1000 nM | 89.3
sgRNA knockout: sgHSF2, 10000 nM | 81.5
sgRNA knockout: sgKEAP1, 10 nM | 104
sgRNA knockout: sgKEAP1, 100 nM | 80.9
sgRNA knockout: sgKEAP1, 1000 nM | 87.7
sgRNA knockout: sgKEAP1, 10000 nM | 75.9
sgRNA knockout: sgNFE2L2, 10 nM | 98.5
sgRNA knockout: sgNFE2L2, 100 nM | 106.3
sgRNA knockout: sgNFE2L2, 1000 nM | 78.7
sgRNA knockout: sgNFE2L2, 10000 nM | 85.4
sgRNA knockout: sgSLC35F2, 10 nM | 97.3
sgRNA knockout: sgSLC35F2, 100 nM | 88.2
sgRNA knockout: sgSLC35F2, 1000 nM | 90.6
sgRNA knockout: sgSLC35F2, 10000 nM | 79.4
sgRNA knockout: sgXBP1, 10 nM | 91.7
sgRNA knockout: sgXBP1, 100 nM | 114
sgRNA knockout: sgXBP1, 1000 nM | 120
sgRNA knockout: sgXBP1, 10000 nM | 87.4

CN/C(=N\CCSCc1nc[nH]c1C)NC#N [Cimetidine]
Details | relative cell number
sgRNA knockout: sgATF3, 10 nM | 122
sgRNA knockout: sgATF3, 100 nM | 99.4
sgRNA knockout: sgATF3, 1000 nM | 106.6
sgRNA knockout: sgATF3, 10000 nM | 103
sgRNA knockout: sgATF4, 10 nM | 94.9
sgRNA knockout: sgATF4, 100 nM | 115
sgRNA knockout: sgATF4, 1000 nM | 93.8
sgRNA knockout: sgATF4, 10000 nM | 111
sgRNA knockout: sgATF6, 10 nM | 105
sgRNA knockout: sgATF6, 100 nM | 117
sgRNA knockout: sgATF6, 1000 nM | 93.01
sgRNA knockout: sgATF6, 10000 nM | 104
sgRNA knockout: sgATG7, 10 nM | 122
sgRNA knockout: sgATG7, 100 nM | 79.4
sgRNA knockout: sgATG7, 1000 nM | 88.8
sgRNA knockout: sgATG7, 10000 nM | 112
sgRNA knockout: sgERN1, 10 nM | 88
sgRNA knockout: sgERN1, 100 nM | 105
sgRNA knockout: sgERN1, 1000 nM | 102
sgRNA knockout: sgERN1, 10000 nM | 114.5
sgRNA knockout: sgHSF1, 10 nM | 110
sgRNA knockout: sgHSF1, 100 nM | 85.32
sgRNA knockout: sgHSF1, 1000 nM | 96.7
sgRNA knockout: sgHSF1, 10000 nM | 98.8
sgRNA knockout: sgHSF2, 10 nM | 89.9
sgRNA knockout: sgHSF2, 100 nM | 101
sgRNA knockout: sgHSF2, 1000 nM | 92.1
sgRNA knockout: sgHSF2, 10000 nM | 93
sgRNA knockout: sgKEAP1, 10 nM | 106
sgRNA knockout: sgKEAP1, 100 nM | 106
sgRNA knockout: sgKEAP1, 1000 nM | 91.9
sgRNA knockout: sgKEAP1, 10000 nM | 94.1
sgRNA knockout: sgNFE2L2, 10 nM | 103
sgRNA knockout: sgNFE2L2, 100 nM | 98
sgRNA knockout: sgNFE2L2, 1000 nM | 95.2
sgRNA knockout: sgNFE2L2, 10000 nM | 120
sgRNA knockout: sgSLC35F2, 10 nM | 99.1
sgRNA knockout: sgSLC35F2, 100 nM | 126
sgRNA knockout: sgSLC35F2, 1000 nM | 91.2
sgRNA knockout: sgSLC35F2, 10000 nM | 102
sgRNA knockout: sgXBP1, 10 nM | 113
sgRNA knockout: sgXBP1, 100 nM | 106
sgRNA knockout: sgXBP1, 1000 nM | 108
sgRNA knockout: sgXBP1, 10000 nM | 116

N#Cc1ccc(COC[C@H]2O[C@@H](n3c(NCc4ccc(Cl)c(Cl)c4)nc4c(N)ncnc43)[C@H](O)[C@@H]2O)cc1
Details | relative cell number
sgRNA knockout: sgATF3, 10 nM | 110
sgRNA knockout: sgATF3, 100 nM | 109
sgRNA knockout: sgATF3, 1000 nM | 104
sgRNA knockout: sgATF3, 10000 nM | 57.4
sgRNA knockout: sgATF4, 10 nM | 89
sgRNA knockout: sgATF4, 100 nM | 103
sgRNA knockout: sgATF4, 1000 nM | 105
sgRNA knockout: sgATF4, 10000 nM | 37.2
sgRNA knockout: sgATF6, 10 nM | 99.9
sgRNA knockout: sgATF6, 100 nM | 92.9
sgRNA knockout: sgATF6, 1000 nM | 86.9
sgRNA knockout: sgATF6, 10000 nM | 45
sgRNA knockout: sgATG7, 10 nM | 118
sgRNA knockout: sgATG7, 100 nM | 97.4
sgRNA knockout: sgATG7, 1000 nM | 104
sgRNA knockout: sgATG7, 10000 nM | 53
sgRNA knockout: sgERN1, 10 nM | 99.9
sgRNA knockout: sgERN1, 100 nM | 103
sgRNA knockout: sgERN1, 1000 nM | 103
sgRNA knockout: sgERN1, 10000 nM | 48.91
sgRNA knockout: sgHSF1, 10 nM | 95.9
sgRNA knockout: sgHSF1, 100 nM | 103
sgRNA knockout: sgHSF1, 1000 nM | 121
sgRNA knockout: sgHSF1, 10000 nM | 43.9
sgRNA knockout: sgHSF2, 10 nM | 96
sgRNA knockout: sgHSF2, 100 nM | 109
sgRNA knockout: sgHSF2, 1000 nM | 97.2
sgRNA knockout: sgHSF2, 10000 nM | 45
sgRNA knockout: sgKEAP1, 10 nM | 89.8
sgRNA knockout: sgKEAP1, 100 nM | 111
sgRNA knockout: sgKEAP1, 1000 nM | 103
sgRNA knockout: sgKEAP1, 10000 nM | 47.6
sgRNA knockout: sgNFE2L2, 10 nM | 105
sgRNA knockout: sgNFE2L2, 100 nM | 113
sgRNA knockout: sgNFE2L2, 1000 nM | 105
sgRNA knockout: sgNFE2L2, 10000 nM | 40.9
sgRNA knockout: sgSLC35F2, 10 nM | 99.59
sgRNA knockout: sgSLC35F2, 100 nM | 96.8
sgRNA knockout: sgSLC35F2, 1000 nM | 96.7
sgRNA knockout: sgSLC35F2, 10000 nM | 50.4
sgRNA knockout: sgXBP1, 10 nM | 107
sgRNA knockout: sgXBP1, 100 nM | 117
sgRNA knockout: sgXBP1, 1000 nM | 84.5
sgRNA knockout: sgXBP1, 10000 nM | 40.2
